From publication PMC12017883

By UniProt entry, the sequences of proteins in these tests, tags left out. Where a name states a change or a piece, a line headed by the entry shows the natural chain unless it says otherwise.
UniProt P00441: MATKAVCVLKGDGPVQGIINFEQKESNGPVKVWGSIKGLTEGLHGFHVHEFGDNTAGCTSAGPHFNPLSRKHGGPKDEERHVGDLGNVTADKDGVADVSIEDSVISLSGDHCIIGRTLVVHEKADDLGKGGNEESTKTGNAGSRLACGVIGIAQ

Biological target: human mtSOD1-L126delTT with a FLAG sequence at the C terminus (human) (UniProt P00441)
Assay: affinity purification with mass spectrometry; anti-FLAG M2 IP (5 ug antibody, protein A/G magnetic beads) from the nuclear fraction of DF7 cells (500 ug total protein); control IP with monoclonal mouse IgG (MOPC 21); DIA proteomics; hits: log2 FC >= 2 over control or missing in the control IP

Row | binding | Binder
1 | binds | Myeloid leukemia factor 2 (protein, UniProt Q99KX1 1-247) MFRFMRDVEPEDPMFLMDPFAIHRQHMSRMLSGGFGYSPFLSITDGNMPATRPASRRMQAGAVSPFGMLGMSGGFMDMFGMMNDMIGNMEHMAAGGNCQTFSSSTVISYSNTGDGAPKVYQETSEMRSAPGGIRETRRTVRDSDSGLEQMSIGHHIRDRAHILQRSRNHRTGDQEERQDYINLDESEAAAFDDEWRRETSRYRQQRPLEFRRHEASVGGGRRAEGPPRLAIQGPEDSPSRQSRRYDW
2 | binds | Calcium-binding mitochondrial carrier protein Aralar2 (protein, UniProt Q9QXX4 1-676) MAAAKVALTKRADPAELKAIFLKYASIEKNGEFFMSPHDFVTRYLNIFGESQPNPKTVELLSGVVDQTKDGLISFQEFVAFESVLCAPDALFMVAFQLFDKAGKGEVTFEDVKQIFGQTTIHQHIPFNWDSEFVQLHFGKERKRHLTYAEFTQFLLEIQLEHAKQAFVQRDNAKTGKVSAIDFRDIMVTIRPHVLTPFVEECLVAAAGGTRSHQVSFSYFNGFNSLLNNMELIRKIYSTLAGNRKDVEVTKEEFALAAQKFGQVTPMEVDILFQLADLYEPRGRMTLADIERIAPLEEGMLPFNLAEAQRQQKASGDAARPFLLQLAESAYRFGLGSIAGAVGATAVYPIDLVKTRMQNQRSTGSFVGELMYKNSFDCFKKVLRYEGFFGLYRGLLPQLLGVAPEKAIKLTVNDFVRDKFMHKDGSVPLLAEIFAGGCAGGSQVIFTNPLEIVKIRLQVAGEITTGPRVSALSVVRDLGFFGIYKGAKACFLRDIPFSAIYFPCYAHVKASFANEDGQVSPGSLLLAGAIAGMPAASLVTPADVIKTRLQVAARAGQTTYNGVTDCFRKILREEGPKALWKGVAARVFRSSPQFGVTLLTYELLQRWFYVDFGGVKPVGSEPVPKSRITLPAPNPDHVGGYKLAVATFAGIENKFGLYLPLFKPSASTSKVTAGDS
3 | binds | Leucine zipper protein 1 (protein, UniProt Q8R4U7 1-1068) MAELTNYKDAASNRHLRFKLQSLSRRLDELEEATKNLQRAEDELLDLQDKVIQAEGSDSSTLAEIEVLRQRVLKIEGKDEEIKRAEDLCHTMKEKLEEEENLTRELKSEIERLQKRMVDLEKLEEALSRSKNECSQLCLSLNEERNLTKKISSELEMLRVKVKELESSEDRLDKTEQSLVSELEKLKSLTLSFVNERKYLNEKEKENEKIIKELTQKLEQNKKMNRDHMRNASTFLERNDLRIEDGISSTLSSKESKRKGSLDYLKQVENETRDKSENEKNRNQEDNKVKDLNQEIEKLKTQIKHFESLEEELKKMRAKNNDLQDNYLTELNRNRSLASQLEEIKLQVRKQKELGNGDIEGEDAFLLGRGRHERTKLKGHGSEASVSKHTSRELSPQHKRERLRNREFALSNEHYSLSSKQASSPVFTNKRAAKASNMGMGTDSGTQETKRTEDRFAPGSSHSEGKRGREQPSVLSRYPPAAQEHTKVWKGAPKPGTESGLKGKVEKTTRTFSDSTHVSVPNDIVGKGDKTSDLSSEAHCGKRGQVPGHASQGTQAVESSCSKAIGALSSSQKASSEGLSKGKKTANGLAADANFSNSKAPILSKYPYSSRSQENILQGFSLPNKEGVDQPVAVVMEDSSQHEALRCRVIKSSGREKPDSDDDLDIESFVTAKLVNTTITPEPEPKPQPNSREKVKSRGGTRTALFENDKNAAIENDSVKPTRPSSNAIEFPDANCAGVKNQRPFSPREALRSRAIIKPVIIDKDVKKIMGGSGTEVVLEKQKSTSKSVTSKVTSSITIYPSDSSGPRAVPSEAPRERHTSTSNIQVGPPELTAISNHVSSPLELSIHKHDITLQLTEAERVGDGSPKNRAEMVVSRSSILIKPSESVEKNSHVPPAETIRWKSHSASSDSRHITVRNAWKSKRDLKCSEDPPTGIGRNMEATNAYTQRPCTDFLELEQPRSQPSEQGARRVGNSGDAPELSPRRTQSSLTASEVLTRRDRMGGAITAASCNHSSSMEEGEDSTFVTSRRIHNPLEHSELPGKQGLPEPEPVWTEERLHPAKPYAEED
4 | binds | Clathrin light chain B (protein, UniProt Q6IRU5 1-229) MAEDFGFFSSSESGAPEAAEEDPAAAFLAQQESEIAGIENDPGFGAPAASQVASAQPGLASGAGSEDMSTTVNGDVFQEANGPADGYAAIAQADRLTQEPESIRKWREEQKKRLQELDAASKVTEQEWREKAKKDLEEWNQRQSEQVEKNKINNRIADKAFYQQPDADTIGYVASEEAFVKESKEETPGTEWEKVAQLCDFNPKSSKQCKDVSRLRSVLMSLKQTPLSR
5 | binds | Cytochrome b5 type B (protein, UniProt Q9CQX2 12-146) KVEGSEPSVTYYRLEEVAKRNSAEETWMVIHGRVYDITRFLSEHPGGEEVLLEQAGADATESFEDVGHSPDAREMLKQYYIGDVHPSDLKPKGDDKDPSKNNSCQSSWAYWFVPIVGAILIGFLYRHFWADSKSS
6 | binds | Ras association (RalGDS/AF-6) and pleckstrin homology domains 1 (protein, UniProt F2Z3U3 1-1266) MEQLSDEEIDHGAEEDSDKEDQDLDKMFGAWLGELDRLTQSLDSDKPKEPVKRSPLRQETNMANFSYRFSIYNLNEALNQGETVDLDALMADLCSIEQELSSIGSGNSKRQVTEPKVPQKLPAGRHTSKHGTLRGPSSSSNRTTKPSHANYSLDDITAQLEQASLSMDEAAQQSLVEDPKPLVTNQHRRTASAGTVSDAEARSISNSSRSSITSAASSMDSLDIDKVTRPQELDLTTHQGQPITEEEQAAKLKAEKIRVALEKIKEAQVKKLVIRVHMSDDSSKTMMVDERQTVRQVLDNLMDKSHCGYSLDWSLVETISELQMERIFEDHENLVENLLNWTRDSQNKLIFMERIEKYALFKNPQNYLLGKKETAEMADRNKEVLLEECFCGSSVTVPEIEGVLWLKDDGKKSWKKRYFLLRASGIYYVPKGKAKVSRDLVCFLQLDHVNVYYGQDYRNKYKAPTDCCLALKHPQIQKKSQYIKYLCCDDARTLHQWVNGIRIAKYGKQLYTNYQEALKRTESAYDWTSLSSSSIKSGSSSSSIPESQSNHSNQSDSGVSDTLPTGHIRSQSTVSSIFSEAWKRGTQLEESSKARMESMNRSYTSLMPPLSPQTKIITPYTASQPSPPLPPPPPPPPPPPPPPPPPPPPLPSQSAPSSGSAATMFVKYSTITRLQNAAQHSGTLFKSPTPPAMQPLPLASQSKAQIVVPPNGVIPPPPPPPPPPTPGSAMAQLKPVPCAPSLPQFSPQPPPLKIHQVQHLPQTAPPTPPPAPPITATVPPQAPPKPLVTIPPSASTKTVSPVVAQAVPPTPAPPVPPAKKQPVFPVSHIPPTPPVQPTPHPPPTLPKQQSFGVKPPPSPLSPVPSVVKQIASQFPPPPTPPPVDSQPLKSLPASGTPQSPPAVKAKPKWQPSSIPVPSPDFPPPPPESSLVFPPPPPPAPAPAPPPPPPPPPPPPPVPPTASPTPDKGGSPGKKTSKMSSPGGKKPPPTPQRNSSIKSGSCAEHPEPKRPSVDSLVSKFAPPAESGSPSKETPPPPAAPPKPGKLHLSGVNLPGIHQQGIVSAKASVLSGRGKDVVVEFPSPPSDSDFPPPPPEIELPLPPIEIPAVFSGNTSPKVAVVNPQPQLWSKTSVKKAPPPTRPKRNDSTRLTQADISEQPAMTTVVPQVPTSPKSSLSVQPGFLADLNRTLQRKSITRHGSLSSSRMSRAEPTATMDDMALPPPPPELLSDQQKAGFGGSHISGYATLRRGPPPAPPKRDQNTKLSRDW
7 | binds | Ataxin-2-like protein (protein, UniProt Q7TQH0 1-1049) MLKPQPPQQTSQPQQPPPTQQAVARRSPGGTSPPNGGLPGPLTATAAPPGPPAAVSPCLGPAAAAGSGLRRGAESILAASAPPQHQERPGAVAIGSVRGQTTGKGPPQSPVFEGVYNNSRMLHFLTAVVGSTCDVKVKNGTTYEGIFKTLSSKFELAVDAVHRKASEPAGGPRREDIVDTMVFKPSDVLLVHFRNVDFNYATKDKFTDSAIAMNSKVNGEHKEKVLQRWEGGDSNSDDYDLESDMSNGWDPNEMFKFNEENYGVKTTYDSSLSSYTVPLEKDNSEEFRQRELRAAQLAREIESSPQYRLRIAMENDDGRTEEEKHSAVQRQGSGRESPSLVSREGKYIPLPQRVREGPRGGVRCSSSRGGRPGLSSLPPRGPHHLDNSSPGPGSEARGINGGPSRMSPKAQRPLRGAKTLSSPSNRPSGEASVPPTSAALPFLPVGRMYPPRSPKSAAPAPVSASCPEPPIGSAVASSASIPVTSSVVDPGAGSISPASPKLSLTPTDVKELPTKEPSRNLEAQELARIAGKVPGLQNEQKRFQLEELRKFGAQFKLQPSSSPETGLDPFPSRILKEEAKGKEKEVDGLLTSDPMGSPVSSKTESILDKEDKVPMAGVGGTEGPEQLPAPCPSQTGSPPVGLIKGDEKEEGPVTEQVKKSTLNPNAKEFNPTKPLLSVNKSTSTPTSPGPRTHSTPSIPVLTAGQSGLYSPQYISYIPQIHMGPAVQAPQMYPYPVSNSVPGQQGKYRGAKGSLPPQRSDQHQPASAPPMMQAAAAAAGPPLVAATPYSSYIPYNPQQFPGQPAMMQPMAHYPSQPVFAPMLQSNPRMLTSGSHPQAIVSSSTPQYPAAEQPTPQALYATVHQSYPHHATQLHGHQPQPATTPTGSQPQSQHAAPSPVQHQAGQAPHLGSGQPQQNLYHPGALTGTPPSLPPGPSAQSPQSSFPQPAAVYAIHPHQQLPHGFTNMAHVTQAHVQTGVTAAPPPHPGAPHPPQVMLLHPPQGHGGPPQGAVPPSGVPALSASTPSPYPYIGHPQVQSHPSQQLPFHPPGN
8 | binds | Periostin (protein, UniProt Q62009 24-838) NSYYDKVLAHSRIRGRDQGPNVCALQQILGTKKKYFSSCKNWYQGAICGKKTTVLYECCPGYMRMEGMKGCPAVMPIDHVYGTLGIVGATTTQHYSDVSKLREEIEGKGSYTYFAPSNEAWENLDSDIRRGLENNVNVELLNALHSHMVNKRMLTKDLKHGMVIPSMYNNLGLFINHYPNGVVTVNCARVIHGNQIATNGVVHVIDRVLTQIGTSIQDFLEAEDDLSSFRAAAITSDLLESLGRDGHFTLFAPTNEAFEKLPRGVLERIMGDKVASEALMKYHILNTLQCSEAITGGAVFETMEGNTIEIGCEGDSISINGIKMVNKKDIVTKNGVIHLIDEVLIPDSAKQVIELAGKQQTTFTDLVAQLGLASSLKPDGEYTLLAPVNNAFSDDTLSMDQRLLKLILQNHILKVKVGLSDLYNGQILETIGGKQLRVFVYRTAICIENSCMVRGSKQGRNGAIHIFREIIQPAEKSLHDKLRQDKRFSIFLSLLEAADLKDLLTQPGDWTLFAPTNDAFKGMTSEERELLIGDKNALQNIILYHLTPGVYIGKGFEPGVTNILKTTQGSKIYLKGVNETLLVNELKSKESDIMTTNGVIHVVDKLLYPADIPVGNDQLLELLNKLIKYIQIKFVRGSTFKEIPMTVYTTKIITKVVEPKIKVIQGSLQPIIKTEGPAMTKIQIEGDPDFRLIKEGETVTEVIHGEPVIKKYTKIIDGVPVEITEKQTREERIITGPEIKYTRISTGGGETGETLQKFLQKEVSKVTKFIEGGDGHLFEDEEIKRLLQGDTPAKKIPANKRVQGPRRRSREGRSQ

No constants are given. Whether binding was seen depends on the method and setting. Binding seen in cells or lysates may run through a third protein. These calls come from enrichment with a bait or labelling near it, and not all partners need be listed.
